Measured values reported in the supplement of paper PMC10849652.
This is one part of the list.

By UniProt entry, the sequences of proteins in these tests, tags left out. Where a name states a change or a piece, a line headed by the entry shows the natural chain unless it says otherwise.
UniProt Q8NCW6: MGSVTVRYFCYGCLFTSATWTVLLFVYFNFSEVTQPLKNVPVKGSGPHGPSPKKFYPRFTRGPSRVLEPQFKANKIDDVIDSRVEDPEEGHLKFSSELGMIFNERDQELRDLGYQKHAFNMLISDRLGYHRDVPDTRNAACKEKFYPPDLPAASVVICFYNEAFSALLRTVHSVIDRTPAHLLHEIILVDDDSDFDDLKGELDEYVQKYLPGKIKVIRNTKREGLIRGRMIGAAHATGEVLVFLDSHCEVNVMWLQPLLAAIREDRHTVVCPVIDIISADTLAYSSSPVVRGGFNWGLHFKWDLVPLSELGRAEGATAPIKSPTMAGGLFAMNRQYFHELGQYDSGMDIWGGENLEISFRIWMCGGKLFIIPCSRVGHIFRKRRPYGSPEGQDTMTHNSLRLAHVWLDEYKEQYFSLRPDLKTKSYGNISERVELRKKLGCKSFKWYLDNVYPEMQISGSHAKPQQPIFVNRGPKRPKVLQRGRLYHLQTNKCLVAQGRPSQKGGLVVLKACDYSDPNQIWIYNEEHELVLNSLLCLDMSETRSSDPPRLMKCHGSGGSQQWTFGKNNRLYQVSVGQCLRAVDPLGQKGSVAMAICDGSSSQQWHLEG
UniProt Q8WXD5: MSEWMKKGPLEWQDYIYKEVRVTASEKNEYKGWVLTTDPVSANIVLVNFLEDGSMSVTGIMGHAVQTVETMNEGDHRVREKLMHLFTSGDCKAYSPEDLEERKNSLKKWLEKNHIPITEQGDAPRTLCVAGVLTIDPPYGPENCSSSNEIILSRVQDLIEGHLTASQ
UniProt P15407: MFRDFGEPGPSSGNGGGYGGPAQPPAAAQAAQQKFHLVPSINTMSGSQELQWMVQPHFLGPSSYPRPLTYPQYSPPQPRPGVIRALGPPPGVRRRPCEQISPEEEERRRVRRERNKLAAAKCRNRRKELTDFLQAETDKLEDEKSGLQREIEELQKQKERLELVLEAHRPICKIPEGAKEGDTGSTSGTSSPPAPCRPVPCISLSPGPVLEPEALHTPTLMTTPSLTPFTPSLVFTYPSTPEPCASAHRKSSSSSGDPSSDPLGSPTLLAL
UniProt Q05932: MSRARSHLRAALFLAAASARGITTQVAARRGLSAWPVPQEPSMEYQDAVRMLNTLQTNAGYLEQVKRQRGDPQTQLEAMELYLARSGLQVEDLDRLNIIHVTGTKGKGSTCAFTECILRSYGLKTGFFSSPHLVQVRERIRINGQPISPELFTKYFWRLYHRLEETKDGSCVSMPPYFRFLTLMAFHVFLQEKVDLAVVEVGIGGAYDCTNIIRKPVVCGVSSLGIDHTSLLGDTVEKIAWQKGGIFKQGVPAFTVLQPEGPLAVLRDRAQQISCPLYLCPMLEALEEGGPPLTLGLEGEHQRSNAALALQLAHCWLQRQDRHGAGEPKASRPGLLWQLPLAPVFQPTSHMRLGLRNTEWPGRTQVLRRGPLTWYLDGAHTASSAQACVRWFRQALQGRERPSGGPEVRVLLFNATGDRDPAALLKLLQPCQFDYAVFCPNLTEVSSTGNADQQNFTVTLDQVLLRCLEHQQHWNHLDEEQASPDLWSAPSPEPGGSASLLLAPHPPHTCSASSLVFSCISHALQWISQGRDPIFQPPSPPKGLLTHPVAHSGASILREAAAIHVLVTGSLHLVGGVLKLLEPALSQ
UniProt Q9UQC2, whole entry, looked up: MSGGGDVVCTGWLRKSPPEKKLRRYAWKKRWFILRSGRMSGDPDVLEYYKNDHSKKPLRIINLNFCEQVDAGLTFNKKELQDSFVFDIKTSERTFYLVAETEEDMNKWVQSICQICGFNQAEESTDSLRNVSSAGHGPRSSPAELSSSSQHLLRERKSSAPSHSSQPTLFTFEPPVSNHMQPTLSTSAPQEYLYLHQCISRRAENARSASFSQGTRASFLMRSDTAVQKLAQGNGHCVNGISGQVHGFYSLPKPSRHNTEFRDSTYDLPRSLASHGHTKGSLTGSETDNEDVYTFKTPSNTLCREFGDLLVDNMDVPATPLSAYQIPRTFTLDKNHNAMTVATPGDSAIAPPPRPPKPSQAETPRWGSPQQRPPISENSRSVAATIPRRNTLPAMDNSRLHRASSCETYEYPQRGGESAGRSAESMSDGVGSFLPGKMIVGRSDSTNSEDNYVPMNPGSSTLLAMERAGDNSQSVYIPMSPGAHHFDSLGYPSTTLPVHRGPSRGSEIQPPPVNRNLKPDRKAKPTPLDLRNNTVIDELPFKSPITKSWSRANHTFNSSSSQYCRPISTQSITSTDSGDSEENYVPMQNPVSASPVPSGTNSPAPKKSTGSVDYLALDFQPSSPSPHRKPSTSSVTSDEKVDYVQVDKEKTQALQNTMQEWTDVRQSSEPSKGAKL
UniProt P85037: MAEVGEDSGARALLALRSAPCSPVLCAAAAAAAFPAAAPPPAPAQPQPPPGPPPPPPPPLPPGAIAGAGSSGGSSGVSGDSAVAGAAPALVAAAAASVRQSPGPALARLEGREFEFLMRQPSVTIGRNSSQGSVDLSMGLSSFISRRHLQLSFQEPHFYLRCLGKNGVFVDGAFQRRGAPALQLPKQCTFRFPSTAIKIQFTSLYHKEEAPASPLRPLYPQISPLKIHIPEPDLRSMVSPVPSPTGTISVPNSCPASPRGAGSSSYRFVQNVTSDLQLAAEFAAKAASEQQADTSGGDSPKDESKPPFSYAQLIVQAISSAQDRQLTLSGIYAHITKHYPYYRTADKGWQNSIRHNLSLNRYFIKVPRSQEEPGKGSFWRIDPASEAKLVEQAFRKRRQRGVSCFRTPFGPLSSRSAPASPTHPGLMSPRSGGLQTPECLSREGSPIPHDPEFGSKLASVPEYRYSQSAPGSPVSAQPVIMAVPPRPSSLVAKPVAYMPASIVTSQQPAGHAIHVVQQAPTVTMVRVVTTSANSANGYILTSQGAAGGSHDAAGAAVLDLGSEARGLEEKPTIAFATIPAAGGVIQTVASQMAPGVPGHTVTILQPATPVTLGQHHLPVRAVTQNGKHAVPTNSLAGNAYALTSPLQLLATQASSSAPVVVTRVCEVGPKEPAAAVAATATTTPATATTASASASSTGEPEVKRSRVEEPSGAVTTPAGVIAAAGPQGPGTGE
UniProt P04066: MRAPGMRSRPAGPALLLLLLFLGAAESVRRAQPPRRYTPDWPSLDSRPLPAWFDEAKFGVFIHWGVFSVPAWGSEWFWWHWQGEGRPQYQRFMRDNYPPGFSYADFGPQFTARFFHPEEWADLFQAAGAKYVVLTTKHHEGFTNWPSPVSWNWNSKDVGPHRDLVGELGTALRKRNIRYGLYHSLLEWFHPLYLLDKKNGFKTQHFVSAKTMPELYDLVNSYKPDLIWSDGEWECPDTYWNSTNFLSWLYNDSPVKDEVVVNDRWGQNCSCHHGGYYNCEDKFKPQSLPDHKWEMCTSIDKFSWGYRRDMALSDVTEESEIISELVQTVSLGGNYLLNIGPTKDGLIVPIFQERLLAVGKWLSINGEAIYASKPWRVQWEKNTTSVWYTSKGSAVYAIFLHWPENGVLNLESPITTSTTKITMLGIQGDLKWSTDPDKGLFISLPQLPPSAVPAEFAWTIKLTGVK
UniProt P23434: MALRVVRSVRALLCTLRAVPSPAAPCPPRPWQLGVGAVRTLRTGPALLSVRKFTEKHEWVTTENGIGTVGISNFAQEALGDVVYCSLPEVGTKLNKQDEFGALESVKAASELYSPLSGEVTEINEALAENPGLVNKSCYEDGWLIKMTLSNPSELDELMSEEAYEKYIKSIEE
UniProt P48507: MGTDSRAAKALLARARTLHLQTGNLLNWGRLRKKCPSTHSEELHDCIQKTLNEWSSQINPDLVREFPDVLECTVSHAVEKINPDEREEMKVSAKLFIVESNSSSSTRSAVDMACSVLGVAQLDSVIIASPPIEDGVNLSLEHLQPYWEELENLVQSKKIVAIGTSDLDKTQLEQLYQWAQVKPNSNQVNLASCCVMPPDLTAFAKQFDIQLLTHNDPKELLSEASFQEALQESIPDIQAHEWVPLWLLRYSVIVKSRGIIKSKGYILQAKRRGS
UniProt P51570: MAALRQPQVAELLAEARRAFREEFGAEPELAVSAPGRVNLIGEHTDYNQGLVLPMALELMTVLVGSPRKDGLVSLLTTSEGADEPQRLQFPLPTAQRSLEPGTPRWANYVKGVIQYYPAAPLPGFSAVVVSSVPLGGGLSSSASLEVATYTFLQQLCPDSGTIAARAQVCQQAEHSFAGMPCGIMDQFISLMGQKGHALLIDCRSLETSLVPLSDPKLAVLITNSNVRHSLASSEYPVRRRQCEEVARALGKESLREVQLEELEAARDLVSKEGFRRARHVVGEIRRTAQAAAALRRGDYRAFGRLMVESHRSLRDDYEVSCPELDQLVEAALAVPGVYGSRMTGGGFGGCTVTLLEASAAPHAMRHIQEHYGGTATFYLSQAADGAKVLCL
UniProt O14893: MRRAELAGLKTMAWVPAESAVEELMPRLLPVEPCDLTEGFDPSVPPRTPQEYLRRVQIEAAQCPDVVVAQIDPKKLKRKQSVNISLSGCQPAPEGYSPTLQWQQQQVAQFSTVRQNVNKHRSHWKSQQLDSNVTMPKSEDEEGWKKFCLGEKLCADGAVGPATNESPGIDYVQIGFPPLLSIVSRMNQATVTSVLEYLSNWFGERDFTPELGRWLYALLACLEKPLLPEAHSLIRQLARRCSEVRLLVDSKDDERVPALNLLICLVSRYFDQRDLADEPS
UniProt Q06546: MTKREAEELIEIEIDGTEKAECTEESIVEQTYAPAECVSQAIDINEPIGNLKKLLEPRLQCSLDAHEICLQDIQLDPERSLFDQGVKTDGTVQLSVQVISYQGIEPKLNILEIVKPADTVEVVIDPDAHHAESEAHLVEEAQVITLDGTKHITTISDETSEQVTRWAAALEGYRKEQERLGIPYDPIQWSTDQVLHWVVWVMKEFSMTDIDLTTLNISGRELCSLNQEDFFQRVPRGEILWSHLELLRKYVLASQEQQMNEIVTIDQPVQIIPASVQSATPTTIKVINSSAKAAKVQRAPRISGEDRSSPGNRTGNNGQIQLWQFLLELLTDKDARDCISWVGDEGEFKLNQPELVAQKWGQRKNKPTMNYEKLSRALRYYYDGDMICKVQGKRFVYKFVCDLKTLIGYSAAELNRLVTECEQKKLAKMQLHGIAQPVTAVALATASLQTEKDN
UniProt Q8NB37: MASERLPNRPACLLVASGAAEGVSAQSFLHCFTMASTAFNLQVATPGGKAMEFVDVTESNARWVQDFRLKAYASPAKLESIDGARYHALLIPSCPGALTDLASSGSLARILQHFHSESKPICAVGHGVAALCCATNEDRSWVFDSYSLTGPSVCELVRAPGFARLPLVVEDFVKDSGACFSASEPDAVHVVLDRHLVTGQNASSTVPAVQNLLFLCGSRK
UniProt Q8N2G8: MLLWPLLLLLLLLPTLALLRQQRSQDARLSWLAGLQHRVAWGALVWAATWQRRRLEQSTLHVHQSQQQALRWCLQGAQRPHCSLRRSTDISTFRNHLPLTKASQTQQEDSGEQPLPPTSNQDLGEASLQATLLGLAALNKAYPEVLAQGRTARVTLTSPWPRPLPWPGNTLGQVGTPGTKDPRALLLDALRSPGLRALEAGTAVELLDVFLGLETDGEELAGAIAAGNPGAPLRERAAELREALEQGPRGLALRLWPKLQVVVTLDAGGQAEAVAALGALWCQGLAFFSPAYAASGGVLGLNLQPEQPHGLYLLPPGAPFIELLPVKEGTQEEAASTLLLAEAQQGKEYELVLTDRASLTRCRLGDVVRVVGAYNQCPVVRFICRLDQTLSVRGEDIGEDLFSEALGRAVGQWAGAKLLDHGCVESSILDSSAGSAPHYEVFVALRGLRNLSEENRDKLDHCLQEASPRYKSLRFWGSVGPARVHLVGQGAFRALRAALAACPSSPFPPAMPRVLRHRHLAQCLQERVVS
UniProt Q9UJ14: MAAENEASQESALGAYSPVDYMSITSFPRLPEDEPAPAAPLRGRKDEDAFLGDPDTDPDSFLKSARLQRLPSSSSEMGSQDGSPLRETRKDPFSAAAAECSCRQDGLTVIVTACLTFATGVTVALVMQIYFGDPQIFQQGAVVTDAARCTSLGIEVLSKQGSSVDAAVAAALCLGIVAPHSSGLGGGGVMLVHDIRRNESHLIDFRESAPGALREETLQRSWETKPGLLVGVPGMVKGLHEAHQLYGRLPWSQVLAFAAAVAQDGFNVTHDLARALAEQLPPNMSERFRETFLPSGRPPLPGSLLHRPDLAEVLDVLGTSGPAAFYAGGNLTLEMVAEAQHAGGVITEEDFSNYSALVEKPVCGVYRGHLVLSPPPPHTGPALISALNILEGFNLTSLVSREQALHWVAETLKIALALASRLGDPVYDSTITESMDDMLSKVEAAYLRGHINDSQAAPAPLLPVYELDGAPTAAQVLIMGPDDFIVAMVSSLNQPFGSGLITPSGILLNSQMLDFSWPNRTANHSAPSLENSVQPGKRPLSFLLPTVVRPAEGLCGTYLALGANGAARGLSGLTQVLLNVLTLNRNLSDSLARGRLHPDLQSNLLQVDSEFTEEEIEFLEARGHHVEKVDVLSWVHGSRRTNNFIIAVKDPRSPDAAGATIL

Compound: C[C@H](C1=CC=C(C=C1)C(=O)NC2=C3C=CNC3=NC=C2)N
Test: log2 fold change, soluble protein after heating vs DMSO (PISA); higher = thermal stabilisation; K562 cells, 10 uM, 30 min; active = over 0.2 and 3.5 SD of the protein, either way, in both replicates (recomputed)
Procedure, shortened: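 For each measurement, 10 μM compound was applied for 30 min to K562 cells at 2×10^6 cells/mL. Aliquots were heated for 3 min across 48°C-58°C, pooled, and extracted in PBS with 0.5% NP-40 at 4°C; the supernatant after 21,000xg for 90 min was soluble protein. This was quantified by TMTpro 16plex LC-MS/MS with channel sums equalised, and thermal stability was reported relative to control samples from duplicates, on a log2 fold-change scale.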

log2 fold change, inactive:
GALNT11 (UniProt Q8NCW6) 0.018
GEMIN6 (UniProt Q8WXD5) 0.091
GALNT10 (UniProt Q86SR1) -0.137
FOSL1 (UniProt P15407) 0.148
GALNT4 (UniProt Q8N4A0) 0.017
FNTB (UniProt P49356) -0.137
FPGS (UniProt Q05932) 0.024
GAB2 (UniProt Q9UQC2) 0.033
FOXK1 (UniProt P85037) -0.482
GAPVD1 isoform 6 (UniProt Q14C86) 0.075
FUCA1 (UniProt P04066) -0.049
GCSH (UniProt P23434) -0.022
GCLM (UniProt P48507) -0.019
GALK1 isoform 2 (UniProt P51570) -0.088
GCDH (UniProt Q92947) -0.032
GDPD1 (UniProt Q8N9F7) -0.057
GEMIN2 (UniProt O14893) 0.061
GABPA (UniProt Q06546) 0.012
GARS1 (UniProt H7C443) 0.308
GATD1 (UniProt Q8NB37) 0.012
GHDC (UniProt Q8N2G8) -0.074
GGT7 (UniProt Q9UJ14) 0.013
GALC (UniProt P54803) -0.012

2 entries drawn at random from the list so far:
log2 fold change, inactive:
FOXK1 (UniProt P85037) -0.482
GALC (UniProt P54803) -0.012
